The list is a part of this screen's results and no random one: it is rich in T/C values a quarter to a half above the control, in often repeated tests (any T/C) and in doses without a T/C. Other doses and runs of a compound stand elsewhere. T/C is the treated group as % of the vehicle group. Schedule codes are those of the source, read here as Q, the interval in days (D) or hours (H), X, the number of doses. Some entries were tested several times; their values stand side by side, smallest first. Some T/C values carry the count of animals alive at the toxicity check (mostly the fifth day); without a count, all were alive then. Some entries give survivors of the animals treated and no T/C: the source files T/C as zero there, which appears to mark a toxic dose or a test without result, not a measured value. Survivors were counted at the toxicity check, usually on the fifth day, unless a day is given; later deaths do not show. Positions of bridges follow the written chain, without caps; N, C: chain ends. Non-standard residues stand in square brackets, D forms with d. Residues, ends and D or L forms follow the SMILES beside them. Chains are numbered I, II in the order given. *: point of attachment. Quinoxaline2carbonyl = O=C(c1cnc2ccccc2n1)*; NMeV = CN[CH](C(=O)O)C(C)C; NMeC = CN[CH](CS)C(=O)O
Tested on: nude mice, HT29 intrarenal xenograft, tumor weight T/C
Assay: NCI In Vivo Anticancer Drug Screen. Data for tumor model HT29;CX-1 Human Adenocarcinoma (MER+) (intrarenal inoculation) in NU/NU Swiss (nude) mice
Conditions: T/C endpoint: mean tumor weight change, higher T/C = larger tumour
How it was run: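 Compounds were given to mice carrying transplantable tumors; a vehicle-dosed group served as control. The endpoint measured in each group was compared as a T/C quotient.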

[1] = dose: 300.0 mg/kg/injection, schedule: Q04DX004 (sc), vehicle: saline with Tween-80, evaluated on day 15
[2] = dose: 150.0 mg/kg/injection, schedule: Q04DX004 (sc), vehicle: suspension in saline
[3] = dose: 300.0 mg/kg/injection, schedule: Q04DX004 (sc), vehicle: suspension in saline
[4] = dose: 800.0 mg/kg/injection, schedule: Q04DX004 (sc), vehicle: Klucel (hydroxypropylcellulose) (HPC)

Question: What does the source list for `Cc1c2cc[n+](C)cc2c(C)c2c1[nH]c1ccc(O)cc12`?
Answer: survivor count (dose: 5.0 mg/kg/injection, schedule: Q04DX004 (sc), vehicle: water): 2 of 6 on day 15; survivor count (dose: 10.0 mg/kg/injection, schedule: Q04DX004 (sc), vehicle: water): 0 of 6 on day 15

Question: For `O=C(CC(=O)C(F)(F)F)c1csc2ccccc12`, which T/C (dose: 1200.0 mg/kg/injection, schedule: Q04DX004 (sc), vehicle: Klucel (hydroxypropylcellulose) (HPC), evaluated on day 15) is on record?
Answer: 128 % of control

Question: Which survivor count (dose: 37.5 mg/kg/injection, schedule: Q04DX004 (sc), vehicle: saline with Tween-80) does the source give for `COC(=O)C(F)C(Br)C(=O)OC` (configuration not stated) here?
Answer: 1 of 6 on day 15

Question: What about the survivor count (dose: 150.0 mg/kg/injection, schedule: Q04DX004 (sc), vehicle: saline with Tween-80) of the same molecule?
Answer: 0 of 6 on day 15

Question: What about the survivor count (dose: 300.0 mg/kg/injection, schedule: Q04DX004 (sc), vehicle: saline with Tween-80) of the same molecule?
Answer: 0 of 6 on day 15

Question: With `O=C(Nc1cccc(Cl)c1)ON1C(=O)C2C(C1=O)C1(Cl)C(Cl)C(Cl)C2(Cl)C1(Cl)Cl` (configuration not stated) as the molecule, how does the T/C [1] read?
Answer: 125 % of control

Question: How did the survivor count (dose: 6.25 mg/kg/injection, schedule: Q04DX004 (sc), vehicle: saline) turn out when `COc1cccc2c1C(=O)c1c(O)c3c(c(O)c1C2=O)C[C@@](O)(C(=O)CO)C[C@@H]3OC1CC(N)C(OC)C(C)O1` (some centres not stated) was run?
Answer: 1 of 3 on day 15

Question: What about the survivor count (dose: 12.5 mg/kg/injection, schedule: Q04DX004 (sc), vehicle: saline) of the same molecule?
Answer: 0 of 3 on day 15

Question: And the survivor count (dose: 25.0 mg/kg/injection, schedule: Q04DX004 (sc), vehicle: saline)?
Answer: 0 of 3 on day 15

Question: With `Nc1ncnc2c(C3OC(CO)C(O)C3O)[nH]nc12` (configuration not stated) as the molecule, how does the survivor count [2] read?
Answer: 3 of 6 on day 15

Question: And the survivor count [3]?
Answer: 0 of 6 on day 15

Question: And the survivor count (dose: 600.0 mg/kg/injection, schedule: Q04DX004 (sc), vehicle: suspension in saline)?
Answer: 0 of 6 on day 15

Question: With `O=Cc1ccccc1` as the molecule, how does the T/C (dose: 100.0 mg/kg/injection, schedule: Q04DX004 (sc), vehicle: Klucel (hydroxypropylcellulose) (HPC), evaluated on day 15) read?
Answer: 132 % of control

Question: What about the survivor count [4] of the same molecule?
Answer: 3 of 6 on day 15

Question: With `Nc1nc(-c2cccc3ccccc23)cc2ccccc12` as the molecule, how does the T/C (dose: 100.0 mg/kg/injection, schedule: Q04DX004 (sc), vehicle: saline with Tween-80, evaluated on day 15) read?
Answer: 137 % of control

Question: What about the survivor count (dose: 1600.0 mg/kg/injection, schedule: Q04DX004 (sc), vehicle: saline with Tween-80) of the same molecule?
Answer: 3 of 5 on day 15

Question: Which T/C (dose: 450.0 mg/kg/injection, schedule: Q04DX004 (sc), vehicle: Klucel (hydroxypropylcellulose) (HPC), evaluated on day 15) does the source give for `CC(=O)OC1=NC(C)c2c1cc(OC(C)=O)[nH]c2=O` (configuration not stated) here?
Answer: 135 % of control

Question: What about the survivor count (dose: 1800.0 mg/kg/injection, schedule: Q04DX004 (sc), vehicle: Klucel (hydroxypropylcellulose) (HPC)) of the same molecule?
Answer: 1 of 6 on day 15

Question: With `CC(=O)OCC1OC(OC2=C(CC=C(C)C)C(=O)c3ccccc3C2=O)C(OC(C)=O)C(OC(C)=O)C1OC(C)=O` (configuration not stated) as the molecule, how does the survivor count (dose: 400.0 mg/kg/injection, schedule: Q04DX004 (sc), vehicle: Klucel (hydroxypropylcellulose) (HPC)) read?
Answer: 2 of 6 on day 15

Question: How did the survivor count (dose: 400.0 mg/kg/injection, schedule: Q04DX004 (sc), vehicle: saline with Tween-80) turn out when `CCN(CC)CCOC(=O)Cc1cccc2c(=O)cc(-c3ccccc3)oc12` was run?
Answer: 0 of 6 on day 15

Question: `CSc1ncnc2c1ncn2C1OC(CO)C(O)C1O` (configuration not stated) was tested. Which T/C (dose: 150.0 mg/kg/injection, schedule: Q04DX004 (sc), vehicle: saline + alcohol, evaluated on day 15) did it give?
Answer: 4, 23, 34, 51 % of control

Question: What about the survivor count (dose: 200.0 mg/kg/injection, schedule: Q04DX004 (sc), vehicle: saline + alcohol) of the same molecule?
Answer: 3 of 6 on day 15

Question: What about the survivor count (dose: 300.0 mg/kg/injection, schedule: Q04DX004 (sc), vehicle: saline + alcohol) of the same molecule?
Answer: 0 of 6 on day 15, 1 of 6 on day 15, 3 of 6 on day 15

Question: Which survivor count (dose: 50.0 mg/kg/injection, schedule: Q01DX010 (sc), vehicle: distilled water + Tween-80) does the source give for `COc1cccc2c1C(=O)c1c(O)c3c(c(O)c1C2=O)C[C@@](O)(C(=O)CO)C[C@@H]3OC1CC(OC(C)=O)C(OC(C)=O)C(C)O1` (some centres not stated) here?
Answer: 0 of 3 on day 11

Question: And the survivor count (dose: 100.0 mg/kg/injection, schedule: Q01DX010 (sc), vehicle: distilled water + Tween-80)?
Answer: 0 of 3 on day 11

Question: What about the survivor count (dose: 200.0 mg/kg/injection, schedule: Q01DX010 (sc), vehicle: distilled water + Tween-80) of the same molecule?
Answer: 0 of 3 on day 11

Question: With `Cc1nn(CCO)c(C)c1N=[N+]([O-])c1c(C)nn(CCO)c1C` as the molecule, how does the T/C (dose: 2400.0 mg/kg/injection, schedule: Q04DX004 (sc), vehicle: Klucel (hydroxypropylcellulose) (HPC), evaluated on day 15) read?
Answer: 133 % of control [4 of 6 alive on day 15]

Question: For `CN(Cc1cnc2nc(N)nc(N)c2n1)c1ccc(C(=O)N[C@@H](CCC(=O)O)C(=O)O)cc1`, which survivor count (dose: 2.0 mg/kg/injection, schedule: Q01DX010 (sc), vehicle: sodium bicarbonate) is on record?
Answer: 0 of 3 on day 11

Question: What about the survivor count (dose: 4.0 mg/kg/injection, schedule: Q01DX010 (sc), vehicle: sodium bicarbonate) of the same molecule?
Answer: 0 of 3 on day 11

Question: For `O=c1n(CC2CO2)c(=O)n(CC2CO2)n1CC1CO1` (configuration not stated), which survivor count (dose: 75.0 mg/kg/injection, schedule: Q04DX004 (sc), vehicle: suspension in saline) is on record?
Answer: 1 of 6 on day 15

Question: What about the survivor count [2] of the same molecule?
Answer: 0 of 6 on day 15

Question: And the survivor count [3]?
Answer: 0 of 6 on day 15

Question: How did the survivor count (dose: 600.0 mg/kg/injection, schedule: Q04DX004 (sc), vehicle: saline with Tween-80) turn out when `Brc1ccc(C[N+]23CN4CN(CN(C4)C2)C3)cc1` was run?
Answer: 2 of 6 on day 15

Question: And the survivor count (dose: 1200.0 mg/kg/injection, schedule: Q04DX004 (sc), vehicle: saline with Tween-80)?
Answer: 0 of 6 on day 15

Question: How did the survivor count (dose: 200.0 mg/kg/injection, schedule: Q04DX004 (sc), vehicle: saline) turn out when `CCN=C=NCCCN(C)C` was run?
Answer: 0 of 6 on day 15

Question: `C=C(OP(=O)(OC)OC)Sc1ccccc1C` was tested. Which T/C (dose: 200.0 micrograms/kg/injection, schedule: Q04DX004 (sc), vehicle: Klucel (hydroxypropylcellulose) (HPC), evaluated on day 15) did it give?
Answer: 138 % of control

Question: For `COc1cc2c(c(OC)c1OC)-c1ccc(OC)c(=O)cc1[C@@H](NC(=O)CCl)CC2`, which survivor count (dose: 5.0 mg/kg/injection, schedule: Q04DX004 (sc), vehicle: saline with Tween-80) is on record?
Answer: 2 of 6 on day 15

Question: For `C1OCN2CSCC12` (configuration not stated), which survivor count (dose: 800.0 mg/kg/injection, schedule: Q04DX004 (sc), vehicle: saline with Tween-80) is on record?
Answer: 0 of 6 on day 15

Question: With `O=C(O)C(O)C(O)C1[O][Sb][O]C1C(=O)O` (configuration not stated) as the molecule, how does the survivor count (dose: 300.0 mg/kg/injection, schedule: Q04DX004 (sc), vehicle: saline) read?
Answer: 0 of 6 on day 15

Question: `CN(C)C=O` was tested. Which T/C (dose: 400.0 mg/kg/injection, schedule: Q01DX010 (sc), vehicle: saline, evaluated on day 11) did it give?
Answer: 129 % of control

Question: With `CC1NC(=O)C(NC(=O)c2cnc3ccccc3n2)COC(=O)C(C(C)C)N(C)C(=O)C2CSSCC(C(=O)N(C)C(C(C)C)C(=O)OCC(NC(=O)c3cnc4ccccc4n3)C(=O)NC(C)C(=O)N2C)N(C)C1=O` (configuration not stated) (I: Quinoxaline2carbonyl-SA[NMeC][NMeV] / II: Quinoxaline2carbonyl-SA[NMeC][NMeV]; ester I:1-II:C, I:C-II:1; disulfide I:3-II:3; configuration not given here) as the molecule, how does the survivor count [4] read?
Answer: 1 of 6 on day 15

Question: With `[Cl][Pt+2][Cl].[NH-]CC1(C[NH-])CCC1` as the molecule, how does the survivor count (dose: 50.0 mg/kg/injection, schedule: Q04DX004 (sc), vehicle: suspension in saline) read?
Answer: 0 of 6 on day 15

Question: What about the survivor count (dose: 100.0 mg/kg/injection, schedule: Q04DX004 (sc), vehicle: suspension in saline) of the same molecule?
Answer: 0 of 6 on day 15

Question: `C[N+](C)(C)c1ncnc2c1ncn2C1CCCO1` (configuration not stated) was tested. Which T/C (dose: 3.12 mg/kg/injection, schedule: Q01DX010 (sc), vehicle: saline, evaluated on day 11) did it give?
Answer: 144 % of control

Question: For `CCOC1=Cc2c(oc3c(C(C)(C)C)cc(OCC)cc23)OC(C(C)(C)C)=C1`, which T/C [1] is on record?
Answer: 132 % of control

Question: For `CC1C=NNC1=O` (configuration not stated), which T/C (dose: 100.0 mg/kg/injection, schedule: Q01DX010 (sc), vehicle: saline with Tween-80, evaluated on day 11) is on record?
Answer: 133 % of control
